From patent publication US10857167B2, “Use of oligosaccharide compositions to enhance weight gain” (Children's Hospital Medical Center, priority 2015, dated 2020)
The source gives many values for each of these; only a part stands here.

System: distal small bowel gene expression
Assay: RNA sequencing / transcriptional analysis of small bowel 56 days after ICR (2′-FL signature response)
Type: in vivo, mouse
Description: Luminal small bowel contents were expressed into AllProtect Tissue Reagent (Qiagen Inc, CA). Bacterial DNA was extracted using the AllPrep DNA/RNA Mini Kit (Qiagen Inc, CA), according to kit instructions and prior to sequencing (described below). Small bowel tissue samples for RNA were placed into RNA Later (Life Technologies, NY). RNA extraction was accomplished following Qiagen RNeasy Plus Kit instruction (Qiagen Inc, CA). All nucleic acid samples were then stored at -80 Celsius until sequenced (described below). Transcriptional analysis was carried out on resected and harvested small bowel samples obtained from operated mice taken to 8 weeks. Murine RNA sequencing libraries were prepared from approximately 1.5 μg RNA using the TruSeq RNA Sample Preparation Kit (Illumina, Calif.) and sequenced using the HiSeq 2000 Sequencing System (Illumina, Calif.) with single-end 50 bp reads. Following removal of primers and barcodes, sequences were aligned to the mm10 genome using reference annotations from UCSC (Rosenbloom et al. (2015) Nucleic acids research 43: […]-681) (n=36,186 entities). Aligned reads were quantified and used to compute reads per kilobase per million mapped reads (RPKM); raw counts were then normalized using the DESeq algorithm and each harvested sample was baselined to its own resected sample. A filter was applied to the data, requiring at least three reads in all samples of at least one of the four experimental conditions (n=14,489 entities). The data discussed in this publication have been deposited in NCBI's Gene Expression Omnibus and are accessible through NCBI Gene Expression Omnibus (GEO) Series accession number GSE72590. Edgar et al. (2002) Nucleic acids research 30: 207-210. In order to characterize the impact of 2'-FL supplementation while accounting for the effect of ileoecal resection, a t-test was applied between resected and harvested samples within control and experimental animals. Significance was set at a p-value of ≤0.05 and a fold change of 3, which generated 2,576 differentially regulated entities across two comparisons. Gene set unions and intersections of the control and experimental gene sets were identified through Venn diagrams. From the master list, the gene list specific to animals supplemented with 2'-FL were removed in order to identify genes differentially regulated only by ICR (n=546 entities); this gene set characterizes the adaptive response. Further, the 2'-FL response (n=2,030 entities) was identified by removing the adaptive response signature described above from the master list, leaving only genes regulated by 2'-FL supplementation after ICR which were not found in the non-supplemented adaptive response. Heatmaps were generated using hierarchical clustering with the Pearson's Centered distance metric and the average linkage rule; both entities and samples were clustered. All genomic analyses described above were performed in Strand NGS (Strand Life Sciences, CA). Gene list functional enrichment was initially discovered using ToppFun, a member of the ToppGene Suite. Chen et al. (2009) Nucleic acids research 37: […]-311. No statistical correction was selected. Gene lists were further analyzed using ClueGO, a plugin for Cytoscape designed to decipher functionally grouped gene ontology and pathway annotation networks. Bindea et al. (2009) Bioinformatics 25: 1091-1093. At the time of data analysis, the annotation files were updated from sources to Jan. 1, 2015. “GO Term Fusion” was enabled to manage ontologic term redundancy and network specificity was set to medium. Results were restricted to pathways with p≤0.05 using Benjamini-Hochberg correction and Kappa scoring was set to 0.4. Biocyc annotations were assigned a rectangle, gene ontology biologic processes were assigned an ellipse, and […] annotations were assigned a diamond shape. No meaning was assigned to size or color. […]

For C[C@@H]1O[C@@H](O[C@H]2[C@H](O[C@H]3[C@H](O)[C@@H](O)C(O)O[C@@H]3CO)O[C@H](CO)[C@H](O)[C@@H]2O)[C@@H](O)[C@H](O)[C@@H]1O (stereo partly shown) [2′-FL, 2′-fucosyllactose], the “Fold Change (Pre- to Post-op)” value (gene Atp11a) was −6.265, the “Fold Change (Pre- to Post-op)” value (gene Atp13a2) was −4.151 and the “Fold Change (Pre- to Post-op)” value (gene Atxn1l) was −3.373. For the same molecule, the “Fold Change (Pre- to Post-op)” value (gene Atxn2) was −3.262, the “Fold Change (Pre- to Post-op)” value (gene Atxn2l) was −4.941 and the “Fold Change (Pre- to Post-op)” value (gene Auts2) was −6.286. The “Fold Change (Pre- to Post-op)” value (gene Azi1) was −6.343, the “Fold Change (Pre- to Post-op)” value (gene B4galnt4) was −3.419 and the “Fold Change (Pre- to Post-op)” value (gene B130055M24Rik) was −3.6. The “Fold Change (Pre- to Post-op)” value (gene B230344G16Rik) was −7.416, the “Fold Change (Pre- to Post-op)” value (gene BC021891) was −3.319 and the “Fold Change (Pre- to Post-op)” value (gene BC031361) was −4.114. For the same molecule, the “Fold Change (Pre- to Post-op)” value (gene BC043934) was −3.587, the “Fold Change (Pre- to Post-op)” value (gene Bace1) was −3.357 and the “Fold Change (Pre- to Post-op)” value (gene Bach2os) was −3.118. The “Fold Change (Pre- to Post-op)” value (gene Bahcc1) was −5.364, the “Fold Change (Pre- to Post-op)” value (gene Bcl9) was −8.66 and the “Fold Change (Pre- to Post-op)” value (gene Bcl11b) was −3.312. For the same molecule, the “Fold Change (Pre- to Post-op)” value (gene Bcorl1) was −4.655, the “Fold Change (Pre- to Post-op)” value (gene Bcr) was −4.246 and the “Fold Change (Pre- to Post-op)” value (gene Bdkrb2) was −4.961. For the same molecule, the “Fold Change (Pre- to Post-op)” value (gene Bend4) was −4.095, the “Fold Change (Pre- to Post-op)” value (gene Bgn) was −4.162 and the “Fold Change (Pre- to Post-op)” value (gene Bicc1) was −3.443. The “Fold Change (Pre- to Post-op)” value (gene Bicd1) was −4.848, the “Fold Change (Pre- to Post-op)” value (gene Bmp6) was −3.399 and the “Fold Change (Pre- to Post-op)” value (gene Bmpr2) was −7.126. For the same molecule, the “Fold Change (Pre- to Post-op)” value (gene Bptf) was −3.805, the “Fold Change (Pre- to Post-op)” value (gene Braf) was −3.487 and the “Fold Change (Pre- to Post-op)” value (gene Brd4) was −6.028. For the same molecule, the “Fold Change (Pre- to Post-op)” value (gene Brpf3) was −3.04, the “Fold Change (Pre- to Post-op)” value (gene Brwd3) was −4.326 and the “Fold Change (Pre- to Post-op)” value (gene Btbd11) was −5.136. The “Fold Change (Pre- to Post-op)” value (gene C1qtnf1) was −8.932, the “Fold Change (Pre- to Post-op)” value (gene C2cd3) was −3.778 and the “Fold Change (Pre- to Post-op)” value (gene C6) was −5.385. The “Fold Change (Pre- to Post-op)” value (gene C030034L19Rik) was −4.233, the “Fold Change (Pre- to Post-op)” value (gene C77080) was −4.128 and the “Fold Change (Pre- to Post-op)” value (gene Cachd1) was −8.438. For the same molecule, the “Fold Change (Pre- to Post-op)” value (gene Cacna1b) was −4.254, the “Fold Change (Pre- to Post-op)” value (gene Cacna1c) was −5.413 and the “Fold Change (Pre- to Post-op)” value (gene Cacna1g) was −4.123. The “Fold Change (Pre- to Post-op)” value (gene Cacna2d2) was −9.02, the “Fold Change (Pre- to Post-op)” value (gene Cacnb1) was −3.777 and the “Fold Change (Pre- to Post-op)” value (gene Cacng7) was −3.343. For the same molecule, the “Fold Change (Pre- to Post-op)” value (gene Cadm3) was −4.45, the “Fold Change (Pre- to Post-op)” value (gene Calb2) was −5.684 and the “Fold Change (Pre- to Post-op)” value (gene Calcoco1) was −4.418. The “Fold Change (Pre- to Post-op)” value (gene Camk2a) was −4.72, the “Fold Change (Pre- to Post-op)” value (gene Camsap1) was −3.101 and the “Fold Change (Pre- to Post-op)” value (gene Camsap2) was −3.063. The “Fold Change (Pre- to Post-op)” value (gene Camsap3) was −3.732, the “Fold Change (Pre- to Post-op)” value (gene Camta2) was −5.196 and the “Fold Change (Pre- to Post-op)” value (gene Card10) was −5.726. The “Fold Change (Pre- to Post-op)” value (gene Card11) was −4.334, the “Fold Change (Pre- to Post-op)” value (gene Caskin2) was −3.804 and the “Fold Change (Pre- to Post-op)” value (gene Cbl) was −7.339. The “Fold Change (Pre- to Post-op)” value (gene Cblb) was −3.136, the “Fold Change (Pre- to Post-op)” value (gene Cbx6) was −3.54 and the “Fold Change (Pre- to Post-op)” value (gene Ccbe1) was −3.665. For the same molecule, the “Fold Change (Pre- to Post-op)” value (gene Ccnd2) was −3.093, the “Fold Change (Pre- to Post-op)” value (gene Ccnk) was −3.329 and the “Fold Change (Pre- to Post-op)” value (gene Cd4) was −4.924. The “Fold Change (Pre- to Post-op)” value (gene Cd93) was −5.94, the “Fold Change (Pre- to Post-op)” value (gene Cd300lg) was −3.318 and the “Fold Change (Pre- to Post-op)” value (gene Cdc42bpa) was −6.529. For the same molecule, the “Fold Change (Pre- to Post-op)” value (gene Cdc42bpb) was −4.85, the “Fold Change (Pre- to Post-op)” value (gene Cdc42bpg) was −3.131 and the “Fold Change (Pre- to Post-op)” value (gene Cdc42ep1) was −5.317. The “Fold Change (Pre- to Post-op)” value (gene Cdh2) was −4.591, the “Fold Change (Pre- to Post-op)” value (gene Cdh5) was −5.117 and the “Fold Change (Pre- to Post-op)” value (gene Cdk5r1) was −3.831. For the same molecule, the “Fold Change (Pre- to Post-op)” value (gene Cdk5r2) was −4.645, the “Fold Change (Pre- to Post-op)” value (gene Cdk5rap2) was −4.57 and the “Fold Change (Pre- to Post-op)” value (gene Cdon) was −4.418. The “Fold Change (Pre- to Post-op)” value (gene Ceacam1) was −3.435, the “Fold Change (Pre- to Post-op)” value (gene Celf3) was −3.115 and the “Fold Change (Pre- to Post-op)” value (gene Celsr2) was −7.304. The “Fold Change (Pre- to Post-op)” value (gene Cep164) was −4.079, the “Fold Change (Pre- to Post-op)” value (gene Cep170b) was −5.544 and the “Fold Change (Pre- to Post-op)” value (gene Cep250) was −4.807. The “Fold Change (Pre- to Post-op)” value (gene Cers6) was −4.036, the “Fold Change (Pre- to Post-op)” value (gene Cfd) was −3.425 and the “Fold Change (Pre- to Post-op)” value (gene Cgn) was −3.074. For the same molecule, the “Fold Change (Pre- to Post-op)” value (gene Cgnl1) was −8.2398, the “Fold Change (Pre- to Post-op)” value (gene Chadl) was −3.171 and the “Fold Change (Pre- to Post-op)” value (gene Chd3) was −5.876. The “Fold Change (Pre- to Post-op)” value (gene Chd4) was −3.814, the “Fold Change (Pre- to Post-op)” value (gene Chd5) was −7.199 and the “Fold Change (Pre- to Post-op)” value (gene Chd6) was −4.615. For the same molecule, the “Fold Change (Pre- to Post-op)” value (gene Chpf) was −3.44, the “Fold Change (Pre- to Post-op)” value (gene Chrm1) was −3.086 and the “Fold Change (Pre- to Post-op)” value (gene Chrm2) was −4.255. The “Fold Change (Pre- to Post-op)” value (gene Chrnb2) was −3.737, the “Fold Change (Pre- to Post-op)” value (gene Chrnb4) was −5.944 and the “Fold Change (Pre- to Post-op)” value (gene Chst1) was −3.15. For the same molecule, the “Fold Change (Pre- to Post-op)” value (gene Chst8) was −5.96, the “Fold Change (Pre- to Post-op)” value (gene Chst11) was −4.644 and the “Fold Change (Pre- to Post-op)” value (gene Chst14) was −3.582. For the same molecule, the “Fold Change (Pre- to Post-op)” value (gene Chst15) was −4.432, the “Fold Change (Pre- to Post-op)” value (gene Cic) was −7.164 and the “Fold Change (Pre- to Post-op)” value (gene Cit) was −4.43. The “Fold Change (Pre- to Post-op)” value (gene Clca1) was −3.554, the “Fold Change (Pre- to Post-op)” value (gene Clip1) was −4.327 and the “Fold Change (Pre- to Post-op)” value (gene Clmn) was −4.752. For the same molecule, the “Fold Change (Pre- to Post-op)” value (gene Clstn1) was −3.195, the “Fold Change (Pre- to Post-op)” value (gene Clstn2) was −3.437 and the “Fold Change (Pre- to Post-op)” value (gene Cmip) was −6.16. For the same molecule, the “Fold Change (Pre- to Post-op)” value (gene Cmklr1) was −5.115, the “Fold Change (Pre- to Post-op)” value (gene Cnnm1) was −4.203 and the “Fold Change (Pre- to Post-op)” value (gene Cnnm3) was −3.437. The “Fold Change (Pre- to Post-op)” value (gene Cnot3) was −4.042, the “Fold Change (Pre- to Post-op)” value (gene Cntn1) was −3.899 and the “Fold Change (Pre- to Post-op)” value (gene Col1a1) was −5.343. The “Fold Change (Pre- to Post-op)” value (gene Col4a1) was −4.982, the “Fold Change (Pre- to Post-op)” value (gene Col4a2) was −7.238 and the “Fold Change (Pre- to Post-op)” value (gene Col5a3) was −3.185. The “Fold Change (Pre- to Post-op)” value (gene Col6a1) was −3.172, the “Fold Change (Pre- to Post-op)” value (gene Col6a2) was −4.259 and the “Fold Change (Pre- to Post-op)” value (gene Col6a4) was −4.048. The “Fold Change (Pre- to Post-op)” value (gene Col9a2) was −6.261.
